Molecules are shown by their SMILES.

This series in a line: Denitrosation of NDELA with sulfuric acid reagent, NO by chemiluminescence (Example 16).

For the molecule `O=NN(CCO)CCO` [NDELA, N-nitrosodiethanolamine], the “Integrated Response” value reads like this: (NDELA 0.76 ppb, acetic acid 58%, sulfuric acid 16%, water 22%, NaI 0.4%) 520; (NDELA 1.51 ppb, acetic/sulfuric acid reagent) 600; (NDELA 3.78 ppb, acetic/sulfuric acid reagent) 890; (NDELA 7.57 ppb, acetic/sulfuric acid reagent) 1303; (NDELA 22.70 ppb, acetic/sulfuric acid reagent) 2800; (NDELA 37.84 ppb, acetic/sulfuric acid reagent) 4000. For the same molecule, the “Integrated Response” value runs as follows: (NDELA 53.00 ppb, acetic/sulfuric acid reagent) 5750; (NDELA 75.68 ppb, acetic/sulfuric acid reagent) 7900.

The values above are taken from patent US4256462A, “Method and composition for determination of n-nitrosamines” (University of Iowa Research Foundation, priority 1979, dated 1981).
